Data published in PMC10589233.
Results are given in words; binding and its absence hold for the method and conditions named. In cells and extracts the contact can be indirect. Some entries that bind do so weakly or less than the wild type. For part of these data: Where a sequence is shown, tags or fusion partners need not be part of it.

Chains of the proteins cited; added tags and fusions are not shown.
UniProt Q8N697: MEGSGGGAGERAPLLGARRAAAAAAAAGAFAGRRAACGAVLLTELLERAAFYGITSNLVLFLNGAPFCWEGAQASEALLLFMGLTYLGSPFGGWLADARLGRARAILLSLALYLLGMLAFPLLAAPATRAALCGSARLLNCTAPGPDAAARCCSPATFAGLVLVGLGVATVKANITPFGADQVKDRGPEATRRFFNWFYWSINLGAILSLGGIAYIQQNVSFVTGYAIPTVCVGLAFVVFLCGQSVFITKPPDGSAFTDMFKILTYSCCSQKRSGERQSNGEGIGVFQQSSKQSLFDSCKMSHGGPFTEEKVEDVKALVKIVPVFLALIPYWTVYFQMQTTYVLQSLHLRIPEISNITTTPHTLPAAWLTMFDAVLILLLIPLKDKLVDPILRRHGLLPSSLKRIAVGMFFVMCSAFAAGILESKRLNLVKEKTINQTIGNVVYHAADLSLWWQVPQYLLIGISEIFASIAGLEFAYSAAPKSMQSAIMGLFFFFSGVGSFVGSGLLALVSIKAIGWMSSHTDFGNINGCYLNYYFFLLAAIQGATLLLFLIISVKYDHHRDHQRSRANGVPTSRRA

What was measured:
[1] = molecular target: StrepHA-tagged wildtype SLC15A4 (human) (UniProt Q8N697); experiment: co-IP; anti-HA agarose IP of StrepHA-tagged SLC15A4 variants from lysates of sgSLC15A4 THP1 cells; E1A lysis buffer (50 mM HEPES, 250 mM NaCl, 5 mM EDTA, 1% NP-40, pH 7.4), overnight at 4 °C, three washes, western blot
[2] = molecular target: StrepHA-tagged wildtype SLC15A4 (human) (UniProt Q8N697); experiment: pull-down; StrepTactin beads on lysates of StrepHA-SLC15A4-expressing THP1 cells co-expressing TASL N-terminus-GFP fusions; E1A lysis buffer (50 mM HEPES, 250 mM NaCl, 5 mM EDTA, 1% NP-40, pH 7.4), overnight at 4 °C, western blot

B1: TASL (protein, UniProt Q9HAI6 1-301)
chain: MLSEGYLSGLEYWNDIHWSCASYNEQVAGEKEEETNSVATLSYSSVDETQVRSLYVSCKSSGKFISSVHSRESQHSRSQRVTVLQTNPNPVFESPNLAAVEICRDASRETYLVPSSCKSICKNYNDLQIAGGQVMAINSVTTDFPSESSFEYGPLLKSSEIPLPMEDSISTQPSDFPQKPIQRYSSYWRITSIKEKSSLQMQNPISNAVLNEYLEQKVVELYKQYIMDTVFHDSSPTQILASELIMTSVDQISLQVSREKNLETSKARDIVFSRLLQLMSTEITEISTPSLHISQYSNVNP
- binding [1]: binds

B2: TASL (1-13) fused to GFP (domain or fragment, UniProt Q9HAI6 1-13)
chain: MLSEGYLSGLEYW
- binding [2]: binds

B3: TASL (1-12) fused to GFP (domain or fragment, UniProt Q9HAI6 1-12)
chain: MLSEGYLSGLEY
- binding [2]: no binding
